Reference: patent US20120178699A1
Results are given in words; binding and its absence hold for the method and conditions named. In cells and extracts the contact can be indirect. Some entries that bind do so weakly or less than the wild type. Sequences can lack the tags named with a protein.

Chains of the proteins cited; added tags and fusions are not shown. Residues count along the entry.
UniProt P08069, residues 31-1367: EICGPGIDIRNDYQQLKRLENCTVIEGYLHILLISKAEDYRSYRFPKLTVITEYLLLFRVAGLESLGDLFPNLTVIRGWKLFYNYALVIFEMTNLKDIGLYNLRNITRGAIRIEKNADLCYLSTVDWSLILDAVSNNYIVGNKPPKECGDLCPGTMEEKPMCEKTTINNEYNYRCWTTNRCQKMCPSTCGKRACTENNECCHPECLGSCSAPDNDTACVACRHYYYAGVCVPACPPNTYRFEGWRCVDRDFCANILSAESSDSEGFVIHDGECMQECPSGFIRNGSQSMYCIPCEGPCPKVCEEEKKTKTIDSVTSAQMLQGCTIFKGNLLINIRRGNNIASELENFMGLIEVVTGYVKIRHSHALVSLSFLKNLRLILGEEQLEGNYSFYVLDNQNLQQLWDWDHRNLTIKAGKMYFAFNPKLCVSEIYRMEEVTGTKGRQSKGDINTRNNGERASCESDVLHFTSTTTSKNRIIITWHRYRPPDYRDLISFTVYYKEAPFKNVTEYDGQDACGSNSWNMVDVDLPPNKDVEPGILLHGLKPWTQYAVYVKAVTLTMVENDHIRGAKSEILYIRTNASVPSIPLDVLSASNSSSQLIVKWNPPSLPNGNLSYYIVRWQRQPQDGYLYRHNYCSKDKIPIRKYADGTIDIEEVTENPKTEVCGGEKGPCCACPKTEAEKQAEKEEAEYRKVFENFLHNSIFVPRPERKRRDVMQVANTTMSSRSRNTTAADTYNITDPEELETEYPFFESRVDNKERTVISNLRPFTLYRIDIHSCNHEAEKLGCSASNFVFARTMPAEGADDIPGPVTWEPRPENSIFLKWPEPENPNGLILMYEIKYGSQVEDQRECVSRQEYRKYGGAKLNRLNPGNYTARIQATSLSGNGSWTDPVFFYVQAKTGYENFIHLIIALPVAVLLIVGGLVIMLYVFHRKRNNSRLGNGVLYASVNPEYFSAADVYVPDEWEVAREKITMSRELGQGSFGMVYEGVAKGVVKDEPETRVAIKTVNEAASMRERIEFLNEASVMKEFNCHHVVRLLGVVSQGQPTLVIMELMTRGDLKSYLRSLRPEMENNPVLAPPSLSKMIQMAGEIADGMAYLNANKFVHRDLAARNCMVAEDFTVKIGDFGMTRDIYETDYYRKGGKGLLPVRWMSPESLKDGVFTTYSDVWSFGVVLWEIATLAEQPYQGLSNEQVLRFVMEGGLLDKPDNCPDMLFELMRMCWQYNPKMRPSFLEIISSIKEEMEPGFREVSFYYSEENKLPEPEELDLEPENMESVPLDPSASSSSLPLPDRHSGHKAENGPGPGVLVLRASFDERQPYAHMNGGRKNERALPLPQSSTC

Tests used:
IGF-1 receptor [1] = molecular target: IGF-1 receptor (UniProt P08069); assay: co-immunoprecipitation from breast cancer cell lysates
IGF-1 receptor [2] = molecular target: IGF-1 receptor (UniProt P08069); assay: co-immunoprecipitation (discussion of the result)
IGF-1 receptor [3] = molecular target: IGF-1 receptor (UniProt P08069); assay: reciprocal co-immunoprecipitation and Western blot, MCF-7 cells stably or transiently expressing HA-klotho

Measured: binding

B1: HA-klotho protein (protein, not shown: small tags and cut ends)
chain: AEPGQGAQTWARFARAPAPEAAGLLHDTFPDGFLWAVGSAAYQTEGGWRQHGKGASIWDTFTHHSGAAPSDSPIVVAPSGAPSPPLSSTGDVASDSYNNVYRDTEGLRELGVTHYRFSISWARVLPNGTAGTPNREGLRYYRRLLERLRELGVQPVVTLYHWDLPQRLQDTYGGWANRALADHFRDYAELCFRHFGGQVKYWITIDNPYVVAWHGYATGRLAPGVRGSSRLGYLVAHNLLLAHAKVWHLYNTSFRPTQGGRVSIALSSHWINPRRMTDYNIRECQKSLDFVLGWFAKPIFIDGDYPESMKNNLSSLLPDFTESEKRLIRGTADFFALSFGPTLSFQLLDPNMKFRQLESPNLRQLLSWIDLEYNHPPIFIVENGWFVSGTTKRDDAKYMYYLKKFIMETLKAIRLDGVDVIGYTAWSLMDGFEWHRGYSIRRGLFYVDFLSQDKELLPKSSALFYQKLIEDNGFPPLPENQPLEGTFPCDFAWGVVDNYVQVDTTLSQFTDPNVYLWDVHHSKRLIKVDGVVAKKRKPYCVDFSAIRPQITLLREMRVTHFRFSLDWALILPLGNQTQVNHTVLHFYRCMISELVHANITPVVALWQPAAPHQGLPHALAKHGAWENPHTALAFADYANLCFKELGHWVNLWITMNEPNTRNMTYRAGHHLLRAHALAWHLYDDKFRAAQKGKISIALQADWIEPACPFSQNDKEVAERVLEFDIGWLAEPIFGSGDYPRVMRDWLNQKNNFLLPYFTEDEKKLVRGSFDFLAVSHYTTILVDWEKEDPMKYNDYLEVQEMTDITWLNSPSQVAVVPWGLRKVLNWLRFKYGDLPMYVTANGIDDDPHAEQDSLRIYYIKNYVNEALKAYVLDDINLCGYFAYSLSDRSAPKSGFYRYAANQFEPKPSMKHYRRIIDSNGFLGSGTLGRFCPEEYTVCTECGFFQTRKSLLVFISFLVFTFIISLALIFHYSKKGQRSYK
binds: all assays above
